Experimental data: PubChem BioAssay AID504834 (National Center for Advancing Translational Sciences (NCATS), 2011)
About 22,000 (6.9%) of roughly 320,000 compounds were called active. Inconclusive means that the source gave no clear call. Such entries were picked first, then a sample of the others. The call rests on the fitted dose curve; in most records, active means well fitted inhibition curve with a large enough effect; inconclusive means small, poorly fitted or top-dose-only effect, or another doubt; inactive means no such curve, though single readings can be large or run the other way. A potency beside an inconclusive call is a rough fit, not a confirmed value.

experiment: Primary qHTS for delayed death inhibitors of the malarial parasite plastid, 96 hour incubation; conditions: P. falciparum luciferase reporter growth; series mostly up to 28.7 µM; activity change, negative = inhibition: at the top concentration
Method in brief: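 Luminescence readout: decreased luciferase signal marks inhibited growth of reporter-expressing P. falciparum in infected red cells (2% hematocrit, 0.05% parasitemia final), exposed to compound two generations (96 h, 37 C, 5% CO2).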
On the % scale 0 is the no-effect control and ±100 the full control effect; potency means the concentration at half of the fitted maximal effect.

Question: With `COc1ccccc1OCCNC(=O)c1ccc(C)c(S(=O)(=O)N2CCOCC2)c1` as the compound, how does the Potency read?
Answer: Its Potency is inconclusive: 2.08 µM [inhibitor, full curve].

Question: With `CCCCN(CC)CCNC(=O)Cn1cc2c(n1)-c1c(oc(C(=O)N3CCCC3)c1C)CC2` as the compound, how does the Potency read?
Answer: The Potency was inconclusive: 20.8 µM [inhibitor, partial curve, poor fit].

Question: For `O=C(Nc1ccc(OC(F)F)cc1)c1cc(S(=O)(=O)N2CCOCC2)ccc1F`, which “activity change, negative = inhibition” value is on record?
Answer: The value was inactive: -19.2%.

Question: With `Cc1ccc(C)c(CN2C(=O)C3CCCN3c3ccc(S(=O)(=O)N4CCOCC4)cc32)c1` (stereo not drawn) as the compound, how does the Potency read?
Answer: The Potency was inconclusive: 1.47 µM [inhibitor, full curve].

Question: For `CN(C(=O)CSc1cn(CC(=O)N2CCOCC2)c2ccccc12)c1ccccc1`, which Potency is on record?
Answer: Its Potency is inconclusive: 11.7 µM [inhibitor, single point].

Question: Which Potency does the source give for `Cc1c(Cl)cccc1N/C(=N/S(=O)(=O)c1cccs1)c1ccccc1` here?
Answer: Its Potency is inconclusive: 14.7 µM [inhibitor, single point].

Question: With `CC(=O)CCc1ccc(OCCCCN2CCC(Cc3ccccc3)CC2)cc1` as the compound, how does the Potency read?
Answer: The Potency was inconclusive: 18.5 µM [inhibitor, single point].

Question: With `CCOc1ccccc1CN1CCN(Cc2ccc(C)o2)CC1CCO` (stereo not drawn) as the compound, how does the “activity change, negative = inhibition” value read?
Answer: The value was inactive: 13.6%.

Question: With `CN(Cc1ccccc1)C(=O)c1[nH]cnc1C(=O)Nc1ccon1` as the compound, how does the Potency read?
Answer: The Potency was inconclusive: 18.5 µM [inhibitor, single point].

Question: With `Cc1cccc(NC(=O)c2cc(-c3cc(C)cc(C)c3O)n[nH]2)c1` as the compound, how does the Potency read?
Answer: Its Potency is inconclusive: 1.65 µM [inhibitor, full curve].

Question: With `O=C(NN1C(=O)c2ccccc2NC1c1ccccn1)c1ccccc1` (stereo not drawn) as the compound, how does the Potency read?
Answer: The Potency was inconclusive: 2.33 µM [inhibitor, full curve, poor fit].

Question: For `CC(C)(C)OC(=O)NCCCCCc1nnc(SCC(N)=O)o1`, which activity change, negative = inhibition is on record?
Answer: Its activity change, negative = inhibition is inactive: 7.26% [at 5.75 µM].

Question: Which Potency does the source give for `OCC1(CCOc2ccccc2)CCN(C2Cc3ccccc3C2)CC1` here?
Answer: Its Potency is inconclusive: 18.5 µM [inhibitor, single point].

Question: For `COc1ccc2[nH]c3c(=O)n4c(nc3c2c1)SCC4`, which Potency is on record?
Answer: Its Potency is active: 10.4 µM.

Question: For `CC(C)Sc1nc2ccccc2n1CC(=O)NCc1ccc2c(c1)OCO2`, which Potency is on record?
Answer: Its Potency is inconclusive: 0.185 µM [inhibitor, full curve, poor fit].

Question: With `O=C(NCc1nc2ccccc2[nH]1)C1=C[C@H](c2coc3ccccc3c2=O)C[C@H](OCc2ccc(CO)cc2)O1` as the compound, how does the Potency read?
Answer: The Potency was inconclusive: 11.7 µM [inhibitor, single point].

Question: With `O=C1C2C(C(=O)N1/N=C/c1cc([N+](=O)[O-])c(O)cc1O)C1C=CC2C12CC2` (stereo not drawn) as the compound, how does the “activity change, negative = inhibition” value read?
Answer: The value was inactive: 27.6%.

Question: For `COC(=O)C1=NN(C(=O)c2ccccc2)C(O)(c2ccc([N+](=O)[O-])cc2)C1` (stereo not drawn), which Potency is on record?
Answer: Its Potency is inconclusive: 18.5 µM [inhibitor, single point].

Question: Which Potency does the source give for `CCOC(=O)[C@H]1[C@H]2COc3ccc(OC)cc3[C@@H]2N2C(=O)c3cc(OC)c(OC)cc3NC(=O)[C@@]12C` here?
Answer: The Potency was inconclusive: 13.1 µM [inhibitor, single point].

Question: For `COCCn1c(N)c(N(Cc2ccccc2)C(=O)Cc2ccccc2F)c(=O)[nH]c1=O`, which Potency is on record?
Answer: The Potency was inconclusive: 8.28 µM [inhibitor, single point].

Question: With `CCOC(=O)c1cc2c(=O)n3ccccc3nc2n(CC(C)C)c1=NC(=O)c1c(-c2c(F)cccc2Cl)noc1C` as the compound, how does the Potency read?
Answer: Its Potency is inconclusive: 2.94 µM [inhibitor, single point].

Question: With `Nn1c(SCC(=O)NCCCc2ccccc2)nnc1-c1cccnc1` as the compound, how does the “activity change, negative = inhibition” value read?
Answer: The value was inactive: -2.05%.

Question: For `CCOC(=O)c1ccccc1OCc1cc(/C=N/n2cnnc2)ccc1OC`, which Potency is on record?
Answer: The Potency was inconclusive: 0.0294 µM [inhibitor, full curve, poor fit].

Question: For `CCOC(=O)c1ccccc1NC(=O)COC(=O)C(CCSC)NC(=O)COc1ccccc1` (stereo not drawn), which “activity change, negative = inhibition” value is on record?
Answer: Its value is inactive: 18.7%.

Question: With `COc1cccc(-n2nnc3c(=O)n(Cc4ccccc4Cl)cnc32)c1` as the compound, how does the Potency read?
Answer: Its Potency is inconclusive: 8.28 µM [inhibitor, partial curve].

Question: With `CCOc1ccccc1NC(=O)c1cccc2c1C(=O)N(CCOC)C2` as the compound, how does the “activity change, negative = inhibition” value read?
Answer: The value was inactive: -23.1%.

Question: For `O=C1N=NC(=O)N1c1ccccc1`, which “activity change, negative = inhibition” value is on record?
Answer: The value was inactive: 31.5%.

Question: With `CCOC(=O)C(Cc1ccccc1)C(=O)Nc1cccc2ccccc12` (stereo not drawn) as the compound, how does the Potency read?
Answer: The Potency was inconclusive: 18.5 µM [inhibitor, single point].

Question: For `O=C1NC(c2cccc(Br)c2)=N/C1=C\c1ccco1`, which “activity change, negative = inhibition” value is on record?
Answer: Its value is inactive: 81.8%.

Question: For `CCCC1CC(C(=O)NC(C(C)Cl)C2OC(SC)C(O)C(O)C2O)N(C)C1` (stereo not drawn), which Potency is on record?
Answer: The Potency was active: 0.0029 µM.

Question: For `Cc1ccc2c(CC(=O)Nc3ccc(N4CCN(C)CC4)cc3C)coc2c1`, which Potency is on record?
Answer: The Potency was inconclusive: 11.7 µM [inhibitor, single point].

Question: With `COc1ccccc1N1C(=O)C2CC(C)=C(C)CC2C1=O` (stereo not drawn) as the compound, how does the Potency read?
Answer: The Potency was inconclusive: 13.1 µM [inhibitor, single point].

Question: For `COc1ccc([C@H]2Oc3cc(O)cc(O)c3C(=O)C2[C@@H]2C(=O)c3c(O)cc(O)cc3O[C@@H]2c2ccc(OC)cc2)cc1` (stereo partly drawn), which Potency is on record?
Answer: Its Potency is inconclusive: 13.1 µM [inhibitor, partial curve, poor fit].

Question: Which Potency does the source give for `Cc1cccc(Nc2nc(N)nc(CC(=O)CSc3ccc(Cl)cc3)n2)c1` here?
Answer: The Potency was inconclusive: 18.5 µM [inhibitor, single point].

Question: For `CCOc1cc(/C=C(\C#N)C(=O)Nc2cccc(C(=O)O)c2)ccc1OCc1ccccc1Cl`, which “activity change, negative = inhibition” value is on record?
Answer: The value was inactive: 1.62%.

Question: For `Cc1cc(NC(=O)c2coc(=O)c(Br)c2)ccc1C(C)C`, which Potency is on record?
Answer: The Potency was inconclusive: 0.657 µM [inhibitor, partial curve, poor fit].

Question: With `Cc1cccc(-n2c(C)cc(C(=O)NC3CCCCC3)c2C)c1` as the compound, how does the Potency read?
Answer: Its Potency is inconclusive: 18.5 µM [inhibitor, single point].

Question: With `COc1cccc(COC(=O)C2CCN(S(=O)(=O)c3ccc(C)cc3C)CC2)c1OC` as the compound, how does the Potency read?
Answer: Its Potency is inconclusive: 18.5 µM [inhibitor, single point].

Question: Which “activity change, negative = inhibition” value does the source give for `CCOC(=O)c1cc(NC(=O)c2cnccn2)cc(C(=O)OCC)c1` here?
Answer: The value was inactive: 25.6%.

Question: With `CCOC(=O)CON1C(=O)C(=O)N(OCC(=O)OCC)C2CCCCC21` (stereo not drawn) as the compound, how does the “activity change, negative = inhibition” value read?
Answer: Its value is inactive: 2.92%.

Question: Which “activity change, negative = inhibition” value does the source give for `Cc1ccc(CNC(=O)C2(NC(=O)Nc3ccc(C)cc3)CCCCC2)cc1` here?
Answer: The value was inactive: -6.32%.

Question: For `N#Cc1cccc(C#N)c1N1CCC(C#N)CC1`, which “activity change, negative = inhibition” value is on record?
Answer: Its value is inactive: 45.2%.

Question: With `O=C(O)c1ccc(N=Cc2c(O)ccc3ccccc23)cc1` as the compound, how does the Potency read?
Answer: Its Potency is inconclusive: 18.5 µM [inhibitor, single point].
